# Data: patent publication US20160200847A1, “CLICKABLE POLYMERS AND GELS FOR MICROARRAY AND OTHER APPLICATIONS” (priority 2014, published 2016)
# Certain results were filed several times, with different values. Only these are listed. The source may hold further records. The values listed for one entry differ for a reason that is not stated; dose, time, organism, isomer or construct need not be as stated for each record.
# Target: Concanavalin A (ConA) (Canavalia ensiformis, UniProt P02866)
# Details: read-out: KD, surf
row,Structure (SMILES),Kd
1,[N-]=[N+]=NCCOC1CC(C(=O)NCCCN2CCCC2=O)C(C(=O)NCCCN2CCCC2=O)CC1O[C@H]1O[C@H](CO)[C@@H](O)[C@H](O)[C@@H]1O (some centres unmarked),0.88 nM and 1.77 nM
2,[N-]=[N+]=NCCOC1CC(C(=O)NC2CCCC2)C(C(=O)NC2CCCC2)CC1O[C@H]1O[C@H](CO)[C@@H](O)[C@H](O)[C@@H]1O (some centres unmarked),0.4 nM and 0.98 nM
3,[N-]=[N+]=NCCOC1CC(C(=O)NC2CC2)C(C(=O)NC2CC2)CC1O[C@H]1O[C@H](CO)[C@@H](O)[C@H](O)[C@@H]1O (some centres unmarked),0.67 nM and 1.71 nM
4,[N-]=[N+]=NCCOC1CC(C(=O)N2CCOCC2)C(C(=O)N2CCOCC2)CC1O[C@H]1O[C@H](CO)[C@@H](O)[C@H](O)[C@@H]1O (some centres unmarked),0.34 nM and 0.79 nM
5,CN(Cc1ccccc1)C(=O)C1CC(OCCN=[N+]=[N-])C(O[C@H]2O[C@H](CO)[C@@H](O)[C@H](O)[C@@H]2O)CC1C(=O)N(C)Cc1ccccc1 (some centres unmarked),0.34 nM and 0.85 nM
